Laboratory results as given in article doi:10.1101/2020.05.03.074682.
These are yes or no findings as the source states them, for the method shown. In cells and extracts the contact can be indirect. Where a sequence is shown, tags or fusion partners need not be part of it.

Chains of the proteins cited; added tags and fusions are not shown.
UniProt Q9BQQ3: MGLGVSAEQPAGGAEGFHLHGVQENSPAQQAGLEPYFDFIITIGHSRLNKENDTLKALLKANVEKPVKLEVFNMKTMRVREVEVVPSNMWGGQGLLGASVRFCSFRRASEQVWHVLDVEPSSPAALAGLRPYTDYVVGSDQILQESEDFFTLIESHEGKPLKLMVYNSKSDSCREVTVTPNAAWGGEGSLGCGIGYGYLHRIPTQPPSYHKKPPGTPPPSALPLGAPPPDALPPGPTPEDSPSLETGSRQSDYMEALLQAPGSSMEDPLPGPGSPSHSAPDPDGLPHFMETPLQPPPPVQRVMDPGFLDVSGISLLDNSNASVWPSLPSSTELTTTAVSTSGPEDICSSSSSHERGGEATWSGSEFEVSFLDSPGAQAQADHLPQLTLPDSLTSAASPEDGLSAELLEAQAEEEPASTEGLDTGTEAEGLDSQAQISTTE

Target: T1, HA-tagged GlcCer synthase (GCS) (UniProt Q16739)
T1 sequence: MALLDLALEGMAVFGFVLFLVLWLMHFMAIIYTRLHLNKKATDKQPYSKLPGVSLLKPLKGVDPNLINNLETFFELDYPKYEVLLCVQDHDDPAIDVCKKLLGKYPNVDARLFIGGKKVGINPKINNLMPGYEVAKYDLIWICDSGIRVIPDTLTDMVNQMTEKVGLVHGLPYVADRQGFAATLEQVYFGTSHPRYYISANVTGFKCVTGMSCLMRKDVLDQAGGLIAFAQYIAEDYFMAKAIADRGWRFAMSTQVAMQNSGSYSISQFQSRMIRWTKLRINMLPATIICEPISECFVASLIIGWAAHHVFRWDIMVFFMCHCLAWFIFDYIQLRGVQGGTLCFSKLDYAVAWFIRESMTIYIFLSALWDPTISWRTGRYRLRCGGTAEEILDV
Test: co-IP

binding: no binding
Substance: GRASP65 (from UniProt Q9BQQ3 1-440)
